Measured data: PubChem BioAssay AID1053208 (Peter MacCallum Cancer Centre, 2014)
Assay: 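Genes whose silencing cuts survival of bone tumour cells only with doxorubicin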 (primary screen). Cell system: mouse osteosarcoma cells, early-passage culture from an engineered mouse model of fibroblastic bone tumour. Reagent: siRNA pool against mouse genes, 40 nM. Time to read-out: about 120 h (48 h before drug, then 72 h with drug). Challenge: doxorubicin 100 nM for 72 h, roughly 30-40% inhibitory dose. Measured: 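Luminescent ATP signal taken as viability with or without 100 nM doxorubicin for 72 h; mean of two wells set against non-targeting siRNA and turned into robust z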. Reading the numbers: viability z-score with doxorubicin: higher = more viable cells under doxorubicin; viability z-score without drug: higher = more viable cells with knock-down alone. Active means: 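a pool counts as active when its viability z-score with doxorubicin is -2 or below and its z-score without drug lies between -2 and 2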.
This is an unselected part of about 17,000 reagents. In the full data, 788 (4.7%) are marked active. 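Calls rest on z-score classes alone; an extra cut-off of viability at most 70% of control was not applied to them.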 The numbers tell different reagents against one gene apart. Not all columns of the deposit are shown.

no.	target gene	reagent no.	combined z-score class	viability z-score with doxorubicin	viability z-score without drug	Call
1	Ptpdc1 (GeneID 218232)	1	no change with or without drug	-0.67	-0.51	inactive
2	Cdh20 (GeneID 23836)	1	no change with or without drug	-0.22	1.52	inactive
3	Zfp958 (GeneID 233987)	1	no change with or without drug	1.69	1.18	inactive
4	Usp8 (GeneID 84092)	1	no change with or without drug	-1.69	-0.17	inactive
5	Cntn2 (GeneID 21367)	1	no change with or without drug	-1.12	-0.51	inactive
6	Ak8 (GeneID 68870)	1	no change with or without drug	1.35	0	inactive
7	Dennd5b (GeneID 320560)	1	no change with or without drug	0	0.84	inactive
8	Gak (GeneID 231580)	1	no change with or without drug	-0.79	-0.51	inactive
9	Elof1 (GeneID 66126)	1	high cell count with doxorubicin only	2.36	1.01	inactive
10	Duxbl1 (GeneID 278672)	1	no change with or without drug	1.35	1.01	inactive
11	Slc24a5 (GeneID 317750)	1	no change with or without drug	0.9	1.52	inactive
12	Ndufv1 (GeneID 17995)	1	no change with or without drug	-1.57	-1.35	inactive
13	Slc67a2 (GeneID 211798)	1	high cell count without drug only	0.9	3.71	inactive
14	Ermard (GeneID 381062)	1	no change with or without drug	0.34	-0.34	inactive
15	Ermard (GeneID 381062)	2	no change with or without drug	-0.67	0	inactive
16	Synpo2 (GeneID 118449)	1	no change with or without drug	1.12	0.84	inactive
17	Cyp27a1 (GeneID 104086)	1	no change with or without drug	0.45	0.84	inactive
18	Nat2 (GeneID 17961)	1	no change with or without drug	1.12	0.17	inactive
19	Prl8a8 (GeneID 74188)	1	no change with or without drug	0.79	1.18	inactive
20	Semg1 (GeneID 53878)	1	no change with or without drug	0	0.51	inactive
21	Kiss1r (GeneID 114229)	1	no change with or without drug	0	1.85	inactive
22	Tyw1 (GeneID 100929)	1	no change with or without drug	-0.45	1.18	inactive
23	Chst10 (GeneID 98388)	1	no change with or without drug	-1.12	-1.18	inactive
24	Trim59 (GeneID 66949)	1	no change with or without drug	0.67	0.84	inactive
25	Usp28 (GeneID 235323)	1	low cell count with doxorubicin only	-2.02	0.67	active
26	Tbc1d10c (GeneID 108995)	1	no change with or without drug	-1.01	-0.17	inactive
27	D930048N14Rik (GeneID 97775)	1	no change with or without drug	0.67	0.51	inactive
28	Nlrp2 (GeneID 232827)	1	no change with or without drug	1.24	0	inactive
29	Tshr (GeneID 22095)	1	no change with or without drug	0	0	inactive
30	Usb1 (GeneID 101985)	1	no change with or without drug	-0.22	-1.52	inactive
31	Mylip (GeneID 218203)	1	no change with or without drug	-0.9	-1.01	inactive
32	Dll4 (GeneID 54485)	1	no change with or without drug	0.22	0.17	inactive
33	Ivd (GeneID 56357)	1	no change with or without drug	0.67	1.85	inactive
34	Zfp52 (GeneID 22710)	1	no change with or without drug	-0.9	0.17	inactive
35	H1f5 (GeneID 56702)	1	no change with or without drug	0	-0.34	inactive
36	Tmem116 (GeneID 77462)	1	no change with or without drug	-0.45	0.17	inactive
37	Kbtbd12 (GeneID 74589)	1	no change with or without drug	-0.79	-1.18	inactive
38	Vpreb1a (GeneID 22362)	1	no change with or without drug	-0.56	0.51	inactive
39	Wdr76 (GeneID 241627)	1	no change with or without drug	0.67	0.51	inactive
40	Psd3 (GeneID 234353)	1	no change with or without drug	-0.79	0.17	inactive
41	Psd3 (GeneID 234353)	2	high cell count with doxorubicin only	2.36	1.85	inactive

Taken from above.
Value of Semg1 (GeneID 53878) under “viability z-score with doxorubicin”: 0
Value of Dll4 (GeneID 54485) under “Call”: inactive
Under “combined z-score class”, Psd3 (GeneID 234353) #1 reads no change with or without drug
For “Call”, Tshr (GeneID 22095) is entered as inactive
Prl8a8 (GeneID 74188), viability z-score without drug → 1.18

More results follow:
no.	target gene	reagent no.	combined z-score class	viability z-score with doxorubicin	viability z-score without drug	Call
42	Fbxo31 (GeneID 76454)	1	no change with or without drug	-0.67	-0.51	inactive
43	Thrb (GeneID 21834)	1	no change with or without drug	-1.46	-0.51	inactive
44	Ndor1 (GeneID 78797)	1	low cell count without drug only	-0.45	-2.36	inactive
45	Acp5 (GeneID 11433)	1	no change with or without drug	-0.67	0.84	inactive
46	Ccng2 (GeneID 12452)	1	no change with or without drug	0.9	1.52	inactive
47	Dgkz (GeneID 104418)	1	no change with or without drug	0.34	-1.18	inactive
48	Nyx (GeneID 236690)	1	no change with or without drug	1.12	1.35	inactive
49	Spdl1 (GeneID 70385)	1	no change with or without drug	0.79	0.17	inactive
50	Dact1 (GeneID 59036)	1	no change with or without drug	0.45	1.01	inactive
51	4732465J09RIK	1	no change with or without drug	-0.22	0.34	inactive
52	Aasdhppt (GeneID 67618)	1	no change with or without drug	1.35	1.52	inactive
53	Taf6 (GeneID 21343)	1	no change with or without drug	-0.56	-1.35	inactive
54	Cd70 (GeneID 21948)	1	no change with or without drug	-0.67	1.18	inactive
55	Macroh2a2 (GeneID 404634)	1	no change with or without drug	1.46	1.69	inactive
56	Mgat4b (GeneID 103534)	1	no change with or without drug	-0.45	-0.51	inactive
57	Slc45a2 (GeneID 22293)	1	no change with or without drug	0.9	0	inactive
58	Rbm42 (GeneID 68035)	1	no change with or without drug	-0.22	-0.84	inactive
59	Zfp763 (GeneID 73451)	1	no change with or without drug	0.11	-0.51	inactive
60	Krtap5-4 (GeneID 50775)	1	no change with or without drug	-1.57	-0.67	inactive
61	Tpcn1 (GeneID 252972)	1	no change with or without drug	0.45	-0.51	inactive
62	Rbpj (GeneID 19664)	1	no change with or without drug	-1.12	0.34	inactive
63	Or9k2b (GeneID 258671)	1	no change with or without drug	-0.9	-0.34	inactive
